The target of this experiment is T1, jasmonate ZIM-domain protein 3 (JAZ3), prey fusion (Arabidopsis thaliana) (UniProt Q9LVI4).
T1 sequence: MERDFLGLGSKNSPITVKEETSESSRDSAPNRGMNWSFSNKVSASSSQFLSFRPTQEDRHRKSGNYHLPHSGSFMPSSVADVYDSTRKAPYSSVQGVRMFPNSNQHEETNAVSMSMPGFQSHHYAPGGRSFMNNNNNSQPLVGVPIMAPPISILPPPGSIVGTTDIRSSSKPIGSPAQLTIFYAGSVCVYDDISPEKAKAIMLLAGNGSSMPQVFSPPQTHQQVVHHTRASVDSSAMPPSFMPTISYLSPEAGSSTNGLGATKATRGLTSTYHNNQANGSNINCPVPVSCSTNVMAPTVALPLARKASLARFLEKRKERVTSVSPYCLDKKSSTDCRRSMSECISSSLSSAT
Description: yeast three-hybrid; Y3H in yeast strain PJ69-4a; NINJA:NLS-FLAG-HIS co-expressed from pMG426 under the GPD promoter as bridging protein with the pGBKT7 and pGADT7 fusions; growth on selective SD-His-Leu-Trp-Ura medium.

By UniProt entry, the sequences of proteins in these tests, tags left out. Where a name states a change or a piece, a line headed by the entry shows the natural chain unless it says otherwise.
UniProt Q9SV55: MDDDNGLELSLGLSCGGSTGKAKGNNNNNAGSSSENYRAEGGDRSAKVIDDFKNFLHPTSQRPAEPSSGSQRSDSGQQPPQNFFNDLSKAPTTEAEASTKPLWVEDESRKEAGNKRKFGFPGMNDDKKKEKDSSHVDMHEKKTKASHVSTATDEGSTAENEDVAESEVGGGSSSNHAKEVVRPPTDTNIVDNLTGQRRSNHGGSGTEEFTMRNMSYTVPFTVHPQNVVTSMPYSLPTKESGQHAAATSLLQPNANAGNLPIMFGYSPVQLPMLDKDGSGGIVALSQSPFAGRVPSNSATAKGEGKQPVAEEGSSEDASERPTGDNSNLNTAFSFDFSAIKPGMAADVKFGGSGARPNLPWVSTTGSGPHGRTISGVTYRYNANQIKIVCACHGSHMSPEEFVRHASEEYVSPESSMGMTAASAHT

The source of these data is publication PMC3519679.

These are yes or no findings as the source states them, for the method shown. Some results given as binding are weak or reduced against the parent protein; the word gives no strength. Tags and fused reporters may be left off the sequences shown.

As to “NINJA:NLS-FLAG-HIS expressed from pMG426 (bridging protein of the Y3H) (from UniProt Q9SV55 1-425)”, the binding entry was “binds”.
